Measured values: PMC9223101, “Transcription Regulation of Cell Cycle Regulatory Genes Mediated by NtrX to Affect Sinorhizobium meliloti Cell Division”
Construct, isoform or probe ends are uncertain for at least one entry.

Target: NtrX, phosphorylated (His-NtrX~P) (Sinorhizobium meliloti 1021) (UniProt Q92Q87)
Experiment: EMSA
Conditions: acetyl phosphate-treated NtrX, 5 mM Mg2+, 20 uL: 3, 6, 15 ng NtrX, 2 nM probe (2 or 40 nM in Methods), 1x binding buffer, 5 mM MgCl2, 50 ng/uL poly(dI-dC), 0.05% NP-40, 1% glycerol, 30 min at 28 C, recombinant protein, protein details: His (pET28b), label: biotin

“GATTTTTTCGCGCTTCGGAATCGGTATCCGCAAAGCGCCTGCAAACCTTGGTTTTGTTGACATCGC (double strand) [gcrA promoter probe]”: binds.

“CCAGCTAAGCAAGAACGCAAAAAACAAAACCCTTGATTCAACAGGGATTCTCGCCGGACTCGGGGAGCGGGATGC (double strand) [dnaA promoter probe (PdnaA)]”: binds (one complex).

“GCGCTTGACTGAGATGCAACACCGTTGCATTTTCGCCACAATGCGTTGCTTGAACCTCGCATAAGCGTCGATTCGCCGGC (double strand) [ntrY promoter probe]”: binds (two complexes).

“GCCTCCAAATCAGGCAACGACTGGATCCGTATCGCGTAAGGATGCCACGACAACCTTGGGCGGCGGAAAAGGGGAAGA (double strand) [ctrA promoter probe]”: binds.
